Measurements taken from paper PMC3146510.

Experiments:
[1] = target: integrin α3β1 (human (endogenous in fetal pancreas)); assay: co-IP; detergent extracts (1% Brij 96, 25 mM Hepes pH 7.5, 150 mM NaCl, 5 mM MgCl2) of human embryonic pancreatic explants; 700 µg protein; immunoprecipitation with rabbit polyclonal anti-α2, -α3, -α5, -β3, anti-Netrin-4 or rabbit IgG at 4°C overnight; Western blotting for Netrin-4
[2] = target: α5 integrin subunit (human (endogenous in fetal pancreas)); assay: as above

binding [1]: binds | binding [2]: no binding
B1: Netrin-4 (protein, UniProt Q9HB63 19-628)
chain: GLSGVAGVSSRCEKACNPRMGNLALGRKLWADTTCGQNATELYCFYSENTDLTCRQPKCDKCNAAYPHLAHLPSAMADSSFRFPRTWWQSAEDVHREKIQLDLEAEFYFTHLIVMFKSPRPAAMVLDRSQDFGKTWKPYKYFATNCSATFGLEDDVVKKGAICTSKYSSPFPCTGGEVIFKALSPPYDTENPYSAKVQEQLKITNLRVQLLKRQSCPCQRNDLNEEPQHFTHYAIYDFIVKGSCFCNGHADQCIPVHGFRPVKAPGTFHMVHGKCMCKHNTAGSHCQHCAPLYNDRPWEAADGKTGAPNECRTCKCNGHADTCHFDVNVWEASGNRSGGVCDDCQHNTEGQYCQRCKPGFYRDLRRPFSAPDACKPCSCHPVGSAVLPANSVTFCDPSNGDCPCKPGVAGRRCDRCMVGYWGFGDYGCRPCDCAGSCDPITGDCISSHTDIDWYHEVPDFRPVHNKSEPAWEWEDAQGFSALLHSGKCECKEQTLGNAKAFCGMKYSYVLKIKILSAHDKGTHVEVNVKIKKVLKSTKLKIFRGKRTLYPESWTDRGCTCPILNPGLEYLVAGHEDIRTGKLIVNMKSFVQHWKPSLGRKVMDILKRECK

No constants are given. Whether binding was seen depends on the method and setting. Binding seen in cells or lysates may run through a third protein. For some assays here: Binding calls can cover weak binding; strength is not graded here.
